According to the supplement of paper PMC3334620:
The full ranking holds about 33,000 sequences; the median of “E-score (-0.5 to 0.5)” is about -0.016, and the highest 2% start at about 0.3. Some of the results follow.

What follows are sequences tested against T1, Yer184c (UniProt P39961) (assay: PBM E-score (8-mer binding enrichment) (E-score (-0.5 to 0.5)); higher = stronger / more preferred TF binding). Conditions: protein concentration: 100 nM; construct: GST-full length.
T1 sequence: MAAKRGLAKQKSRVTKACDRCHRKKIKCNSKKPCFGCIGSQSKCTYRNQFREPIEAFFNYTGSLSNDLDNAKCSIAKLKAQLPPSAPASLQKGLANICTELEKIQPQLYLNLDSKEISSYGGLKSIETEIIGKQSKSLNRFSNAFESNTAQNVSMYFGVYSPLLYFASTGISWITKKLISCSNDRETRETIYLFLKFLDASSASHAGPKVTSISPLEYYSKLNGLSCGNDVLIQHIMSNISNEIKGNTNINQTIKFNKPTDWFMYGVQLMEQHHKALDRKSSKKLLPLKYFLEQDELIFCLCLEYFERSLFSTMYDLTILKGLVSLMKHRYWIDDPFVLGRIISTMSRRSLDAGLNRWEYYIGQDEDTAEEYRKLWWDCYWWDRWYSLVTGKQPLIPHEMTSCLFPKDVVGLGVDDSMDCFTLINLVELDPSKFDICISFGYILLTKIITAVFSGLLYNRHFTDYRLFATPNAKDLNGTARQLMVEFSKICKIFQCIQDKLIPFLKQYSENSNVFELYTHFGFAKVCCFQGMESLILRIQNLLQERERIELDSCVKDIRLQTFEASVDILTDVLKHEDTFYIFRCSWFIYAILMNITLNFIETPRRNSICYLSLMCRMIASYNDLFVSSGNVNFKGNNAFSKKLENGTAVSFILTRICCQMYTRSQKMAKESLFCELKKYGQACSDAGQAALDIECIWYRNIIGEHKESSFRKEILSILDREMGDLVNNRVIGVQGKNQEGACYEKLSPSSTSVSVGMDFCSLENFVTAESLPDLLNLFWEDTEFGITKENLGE
Outline: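 PURExpress in vitro transcription/translation supplied GST-tagged yeast transcription factors, either full-length or DNA-binding domain. Applied at about 100-200 nM to universal all-10-mer Agilent arrays double-stranded by primer extension, the bound protein was detected with fluorescent anti-GST. E-scores, modified Wilcoxon-Mann-Whitney statistics, were given by the Universal PBM Analysis Suite to ungapped eight-base words pooled with their reverse complements after masliner normalisation.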

Sequence	PBM E-score
CTTGAGTC	-0.0739
ATAGAGCG	-0.0792
ATGGTGCA	-0.0969
CCAGAACG	0.172
ATCGCCCG	0.0408
ACCGGTCA	0.184
AGCAGGCT	-0.112
GGCTTCCA	-0.072
ATGATAAC	0.127
ATGCAACG	-0.114
AGGTATGA	-0.00699
ACAACGTC	-0.0597
CACGGGTC	-0.0505
CGCCCCTC	-0.199
GGATTCCA	0.13
GACGGTAC	0.111
CAGATCTA	-0.0489
ATCACATA	0.126
CACCATGA	-0.0987
GATGAGCC	-0.0364
ACAATCAA	0.141
GACGGAGC	-0.0488
CCCTAGCG	-0.246
AACGACAA	0.211
AAATGATG	0.149

Sequence	PBM E-score
ATTACCGA	0.24
AGTCCACG	-0.201
CACATTCG	0.097
ATCGGTGA	0.0812
AGATTATC	0.0889
AATGCTCA	-0.0928
CCGTTATC	0.0784
AGCGAAGG	-0.0374
CTCCCTAA	-0.112
CTTTCCGA	0.3
ATGACCGC	-0.193
CGCGAACA	0.105
AATTGCTC	-0.164
ACTGATCA	0.0899
CCGCTTTA	0.0295
ATAGATTA	0.0924
GCCCGAAA	0.171
GCCGTCCA	0.06
CATCGCAG	-0.28
GGGTGTTA	-0.165
AGACGCTG	-0.167
ACTAGCAG	-0.163
CTGTAGTC	-0.215
AGCTCTAC	-0.195
CCTTGCCA	-0.0398

Sequence	PBM E-score
ATACTAAG	0.144
GAATTCCC	-0.0339
CCGAGAAA	0.351
ATGCTGCC	-0.0664
GAAGCGCA	0.0914
GCCTCTAC	-0.29
AGGGTCAA	0.0329
CCAGCAGC	-0.205
GGTAATAC	0.14
ATAAGTTA	0.0936
AGCCCTTA	-0.102
GTCGTAAC	-0.0708
ACCGATAA	0.261
GCGTAAGC	-0.247
CCGTGTAG	-0.0156
CAGCTATA	-0.153
CGCTAAGA	0.073
ATGCATAG	-0.0591
CTCAGTCC	-0.163
CAACCATA	-0.0489
CGCGTGCA	-0.149
CGAATCAA	0.203
AGAAAAGG	0.0774
GATGATAC	0.00594
TACATACA	0.123

Sequence	PBM E-score
ATAAACGG	0.236
GCTAATAA	0.0169
AATCGTCA	-0.0694
GCCCGCGC	0.132
CAGGCAGG	-0.122
ACCGTAGG	-0.23
CACCCCTG	-0.382
AATCGTGA	-0.0488
CGGCGACG	0.157
CGCGTTAA	-0.0373
CCTATCCG	-0.0528
GGGAGATA	-0.161
CCGATCGC	0.125
CGAACACA	0.154
AGAGAATC	-0.0146
AGTATGAT	0.1
TCATCGAA	0.0784
ACGTTTTG	-0.11
CGCGGTTA	0.135
GGCGAGCA	-0.14
GTCTAAAA	-0.0151
CCGGTGAG	0.0289
AAAGGTGA	-0.0785
GGATTGCA	0.0231
ACGTCAGT	-0.185

Sequence	PBM E-score
GACGTATA	-0.196
CACGCCAA	0.0109
ATAAAAGC	0.0719
AGTGGTTC	0.02
TTACCAAA	0.146
GATGAGGC	-0.2
CCTGTACG	-0.107
AGTGTCGG	0.17
CACGTCGG	0.0631
CAATCGGA	0.278
CACATAAG	-0.126
GCAAAGGC	-0.222
CACCGGGA	0.152
AGTATACT	-0.164
ATTAGAAA	0.151
ACGCCGAT	0.151
AGCCAACT	-0.224
GAGCGTAA	0.0232
GGAAGACC	0.0141
AACTGATT	-0.0342
AGCGTGCG	0.0419
CCATATAA	-0.0407
AATACGAA	0.22
CATTTAGC	-0.135
GTAGAAGA	-0.122

Six records picked at random from those above:
Sequence	PBM E-score
AGCGTGCG	0.0419
ACGCCGAT	0.151
CCATATAA	-0.0407
CCTGTACG	-0.107
AACTGATT	-0.0342
CACGTCGG	0.0631

Continued.

Sequence	PBM E-score
CCGCCCTA	-0.158
GAAGAGAC	0.196
AACAGCTA	-0.0664
CACAACCC	-0.144
AGCGCAAG	-0.108
CTCCGTCA	0.0186
AGTGGGTC	-0.257
AATCTGCT	0.0114
AGGTTGCC	-0.136
AGGCACCT	-0.183
CCTGGCCC	-0.134
CTCAATCA	0.119
ACGTAACG	-0.107
CTAAGTAA	0.11
AGCGTAAC	0.0881
CCGTTACG	0.0574
GACGAGTC	-0.106
AAAGTTGG	-0.0523
TAATGATA	0.25
GGTGCCAC	-0.119
AAAATGAT	0.189
CTTTCCCA	-0.0839
ACGCTCTA	-0.311
CGCTGCGA	0.0144
TCAACTCA	-0.0352

Sequence	PBM E-score
GAGCCAAA	-0.115
AATCAGGT	0.255
AATCTCCC	-0.132
AAGTTCAA	0.229
AGCTACCA	-0.173
CTATAAAG	-0.034
GATTTGCC	0.181
GACCGTGA	0.0402
CACCCATC	-0.107
AAAGCAAA	0.221
AGCTGTTC	-0.0646
CTGTGGCC	-0.15
AAACAGGT	-0.0555
CAATTAAG	0.21
GCCAGGAC	-0.161
TAGGGACA	-0.0514
GGAAGAAA	0.19
AAGAAGGG	-0.268
CCCTTTGA	-0.266
GCCGCACA	-8e-05
ATATAACC	-0.0755
AAACCTAG	-0.0735
GCAGCCCA	-0.289
AGTTTGGA	0.135
AAAATATA	0.273

Sequence	PBM E-score
ATGCAAGG	-0.365
AACGAATT	0.118
GAAGATTA	0.0705
TCATCACA	-0.272
ACACAGCT	-0.0952
TAGGTGCA	-0.175
CCAACAAA	0.121
AAACCTAA	0.0262
GAAGAACA	0.194
ACAGGAAG	0.0482
CAGGTGCC	-0.0579
GACTCATC	-0.254
ACGCACGG	0.17
ATTCGGTA	0.329
GTCGATAA	-0.0725
AGATGGAC	0.0923
AAAGAAGT	0.0907
ACTGAGCA	-0.107
CAACTTGA	0.128
ATGGGGGA	-0.387
ACGAATGG	0.0455
AATGCGCT	-0.156
CAACGCTA	-0.142
CTTTGGGC	0.0655
CGCAACCA	0.0528

Sequence	PBM E-score
GCTAACCC	-0.129
CCCAGCAA	-0.00378
ATAGCTAG	-0.13
CGAGAGGA	0.0152
GTCAAGGA	-0.0802
CATTGCAG	-0.038
CGACGGTA	0.152
CCAGAGAC	-0.195
AGTTGACC	0.0585
GATTTCTA	0.252
AATTACAT	0.214
CGGGACAA	0.202
ACATGAAA	-0.193
CATATGGC	-0.0624
CAGATGGC	-0.0517
GGTCACTA	-0.0834
GTTGGTGA	-0.136
ATTTGAGG	0.0459
ATTCGGAC	0.349
GGCACCAA	0.138
GATGTAGA	-0.0255
ACTAATAT	0.0845
AACGCAAC	0.0396
ATCGGTCG	0.103
GGTCTACA	-0.0802

Sequence	PBM E-score
GTAAATGA	0.113
AAAGCTCG	0.141
CGTGCAGA	-0.112
CCGTGTGA	0.106
TCTCGGAA	0.334
AATTAAGG	-0.0516
CATTCGAG	-0.0644
AGCCAAAG	-0.0858
CAGGGAAC	-0.0403
AAGAACCA	0.0592
AATTCAGT	-0.198
AATACGCT	-0.107
AAATGTGC	0.119
TGCGACCA	0.114
GGCTCCGA	0.0964
ACGGGTGA	-0.125
CGTCTTCA	-0.00365
GCCCACGC	-0.184
CATAATTC	0.0148
AAATGTAC	-0.00258
ACGAGTCA	-0.0551
TAAACTAA	0.254
CGAAGAAA	0.268
AGTGATCC	0.0892
GATCCACA	-0.0426

Sequence	PBM E-score
AAATTCCG	0.384
TGCCGGAA	0.421
GCTGTTTA	0.141
GACGACTA	-0.263
ACACTATC	-0.00981
TCACACCA	0.0175
CCTCTCCA	-0.273
CAGAATGC	0.0811
AGCCGGTC	0.144
CGTAGTGC	-0.0978
CGAGAACA	0.0391
GATATGCC	-0.0819
CCGCACCA	-0.0433
CCGTGGTC	0.00535
GGAAGCCA	-0.227
CCGAGCAA	0.195
CAGATAGA	-0.0671
CCGGGAGA	0.253
CCCCAGTA	-0.202
GTCTTAAC	-0.122
CAATTTAC	-0.0155
CCGAAACG	0.265
CCAAGAGC	-0.141
ATAGGCTC	-0.0944
ACGCCCCA	-0.128

A few values from the results shown.
PBM E-score, CCGAAACG reads 0.265
PBM E-score, CAGAATGC reads 0.0811

The list continues.

Sequence	PBM E-score
CTTCTTGC	0.0529
GGGAAGCA	-0.128
CGCCAGCC	-0.0576
ACACTGGC	-0.0493
CGGCGGAC	0.266
AATGTACG	-0.181
CCTTCTAC	-0.177
AAGACAAT	-0.0653
AGTATAGA	0.0886
ACAGTTCC	0.175
CGCGGCCG	0.251
GTGCTTCA	0.114
GCAACTGC	0.106
CCAGAGAA	0.00736
ACTTGGGG	-0.277
AATGCCCA	-0.178
ATCTCGGC	0.37
GCCCATTA	-0.134
CAAAAAAC	0.168
GACAAACC	0.0316
ACAATAAG	0.0199
CGTTCCAG	-0.0853
TACAGAGA	-0.0445
CGTCAACA	-0.0309
AGGTGATA	-0.122

Sequence	PBM E-score
AGCTTAGA	-0.0558
CAAGAGTG	-0.158
TACGAAGA	0.05
AGCTTACT	-0.0973
AAGGCAGC	-0.142
ACATATTG	-0.0568
CACCCGGG	0.189
CCAGAAAG	0.122
CGGGAGCC	-0.11
CCTGTCCG	0.0366
CATATGCA	-0.0944
CCTGCTTC	-0.164
GGAAGGCC	-0.124
GTGCAAAC	0.0615
ACCCAAAG	-0.173
GTGTAGCA	-0.216
ATTCGGAG	0.205
CCTTGTAG	-0.145
GGGCCCGA	0.105
CATAATGA	-0.0194
GAAGTCAC	-0.123
ATTGTGCA	0.0169
CTCTCAAG	-0.058
ATCGACTG	-0.0891
CTCCCCCC	-0.421

Rewritten as a markdown table: part of the list above

| Sequence | PBM E-score |
| --- | --- |
| GTGTAGCA | -0.216 |
| ATTCGGAG | 0.205 |

Remaining list, next part.

Sequence	PBM E-score
TATTTACA	-0.00419
AGCTCTTC	0.0727
CAGCAACA	0.223
ATCAATCG	-0.00221
AGGCACCC	-0.305
CCGGGCAC	0.177
CGATGGTC	-0.12
AACACTCC	0.073
AAAGCTCC	-0.0539
CTCCGACC	0.0141
AACGGGTG	-0.0136
ACCCGCTG	-0.0362
CCCCGGCG	0.0993
CAACTCCG	0.197
AGCTAAGC	-0.197
ATCCGCAA	0.0943
AACGTAGA	0.0265
CTCTTGCC	-0.0522
TCCGACAA	0.225
